In US6605431:
For at least one entry, the source does not settle the construct or the ends of the probe. For part of these data: Negatives hold for the conditions tested.

Key:
[1] = system: RNA polymerase (in-cell) (Escherichia coli); test: activity in cells; conditions: protein in cells
[2] = system: RNA polymerase holoenzyme alphaDelta235 (lacks alphaCTD) (Escherichia coli); test: activity assay; conditions: no UP stimulation; purified recombinant protein; protein details: reconstituted; label: 32P
[3] = system: RNA polymerase holoenzyme (sigma70) (Escherichia coli); test: SELEX; conditions: purified native protein
[4] = vs lac core, only the site is given
[5] = in vivo more active than wild type

For “AGAAAATTATTTTAAATTTCCT (double strand) [rrnB P1-lac hybrid promoter]”, which activity on this sequence [1, 4] is on record?
Its activity on this sequence is 39 fold.

How did the “activity on this sequence” value [2] turn out when “GACCTCAGGAATTCCGCGGTCGACTGCAGTGGTAAAAAAAGTACTTGTCAGGCCGGAATAACTCCCTATAATGCGCCACC (double strand) [rrnB P1 with 4547 proximal subsite]” was run?
Its value is “not active”.

Which activity on this sequence ([1]; lacZ fusion vs no UP) does the source give for “GACGTCAGGAATTCCGCGGTCAGAAAATTATTTTAAATTTCCTCTTGTCAGGCCGGAATAACTCCCTATAATGCGCCACC (double strand) [rrnB P1 wild type UP element]” here?
The activity on this sequence was 69 fold.

And the “activity on this sequence” value [2]?
The value was “not active”.

With “GACGTCAGGAATTCCGCGGTCAGAAAATTATTTTACTAGGAATCTTGTCAGGCCGGAATAACTCCCTATAATGCGCCACC (double strand) [rrnB P1 distal subsite only]” as the sequence, how does the activity on this sequence ([1]; lacZ fusion, variant of rrnB P1 wild type UP element) read?
The activity on this sequence was 9 fold.

Which activity on this sequence ([1]; reference core promoter lacking UP element, variant of rrnB P1 wild type UP element) does the source give for “GACGTCAGGAATTCCGCGGTCGACTGCAGTGGTACCTAGGAATCTTGTCAGGCCGGAATAACTCCCTATAATGCGCCACC (double strand) [rrnB P1 core, no UP element]” here?
The activity on this sequence was 1 fold.

With “GACGTCAGGAATTCCGCGGTCGGAAAATTTTTTTAAAAAAAGACTTGTCAGGCCGGAATAACTCCCTATAATGCGCCACC (double strand) [rrnB P1 with combined UP element 4541]” as the sequence, how does the activity on this sequence ([1]; lacZ fusion) read?
Its activity on this sequence is 340 fold.

“GACGTCAGGAATTCCGCGGTCGGAAAATTTTTTTTCAAAAGTACTTGTCAGGCCGGAATAACTCCCTATAATGCGCCACC (double strand) [rrnB P1 with UP element 4192]” was tested. Which activity on this sequence ([1]; lacZ fusion vs core promoter) did it give?
The activity on this sequence was 326 fold.

What about the “activity on this sequence” value [2] of the same sequence?
Its value is “not active”.

Which activity on this sequence ([1]; lacZ fusion) does the source give for “GACGTCAGGAATTCCGCGGTCGGAAAATTTTTTTTCTAGGAATCTTGTCAGGCCGGAATAACTCCCTATAATGCGCCACC (double strand) [rrnB P1 with 4513 distal subsite]” here?
The activity on this sequence was 16 fold.

And the “activity on this sequence” value [2]?
Its value is “not active”.

How did the selection result [3, 5] turn out when “GACGTCAGGAATTCCGCGGTCTCAAAATTTTTTTTGCAAAGTACTTGTCAGGCCGGAATAACTCCCTATAATGCGCCACC (double strand) [selected UP SEQ 56]” was run?
Its selection result is “selected”.

Which selection result [3, 5] does the source give for “GACGTCAGGAATTCCGCGGTCTCAAATTTTTTTTTGCAAACCCCTTGTCAGGCCGGAATAACTCCCTATAATGCGCCACC (double strand) [selected UP SEQ 51]” here?
The selection result was “selected”.

For “GACGTCAGGAATTCCGCGGTCTGAAAAATATTTTTGAAAACTACTTGTCAGGCCGGAATAACTCCCTATAATGCGCCACC (double strand) [selected UP SEQ 61]”, which selection result [3, 5] is on record?
Its selection result is “selected”.

With “GACGTCAGGAATTCCGCGGTCTGAAATATTTTTTTGAAAACCCCTTGTCAGGCCGGAATAACTCCCTATAATGCGCCACC (double strand) [selected UP SEQ 65]” as the sequence, how does the selection result [3, 5] read?
The selection result was “selected”.

With “GACGTCAGGAATTCCGCGGTCTGAAATTTATTTTGCGAAAGGGCTTGTCAGGCCGGAATAACTCCCTATAATGCGCCACC (double strand) [selected UP SEQ 63]” as the sequence, how does the selection result [3, 5] read?
Its selection result is “selected”.

How did the selection result [3, 5] turn out when “GACGTCAGGAATTCCGCGGTCTGAATTTTTTTTTCGTCTACCCCTTGTCAGGCCGGAATAACTCCCTATAATGCGCCACC (double strand) [selected UP SEQ 57]” was run?
The selection result was “selected”.

Which selection result [3] does the source give for “GACGTCAGGAATTCCGCGGTCTGTAATAATTTTTACTAGGAATCTTGTCAGGCCGGAATAACTCCCTATAATGCGCCACC (double strand) [selected distal SEQ 24]” here?
The selection result was “selected”.

“GACGTCAGGAATTCCGCGGTCTTAAATTTTTTTTCATAAACCCCTTGTCAGGCCGGAATAACTCCCTATAATGCGCCACC (double strand) [selected UP SEQ 50]” was tested. Which selection result [3, 5] did it give?
Its selection result is “selected”.

For “GACGTCAGGAATTCCGCGGTCTTAAATTTTTTTTCGTAAACCCCTTGTCAGGCCGGAATAACTCCCTATAATGCGCCACC (double strand) [selected UP SEQ 49]”, which selection result [3, 5] is on record?
Its selection result is “selected”.

Which activity on this sequence [1, 4] does the source give for “GGAAAATTTTTTTTCAAAAGTA (double strand) [4192-lac hybrid promoter]” here?
The activity on this sequence was 108 fold.
